No constants are given. Whether binding was seen depends on the method and setting. Binding seen in cells or lysates may run through a third protein. For some assays here: Binding calls can cover weak binding; strength is not graded here. Blank lines part the entries; values can stand above or below the molecule they belong to.
Columns and labels:
[1] = target: T1, endogenous Rnf25 (human (endogenous in HEK293T)) (UniProt Q96BH1); assay: co-IP; HEK293T transfected with HA-Nkd1 alone; endogenous Rnf25 precipitated with anti-Rnf25, blot with anti-HA
T1 sequence: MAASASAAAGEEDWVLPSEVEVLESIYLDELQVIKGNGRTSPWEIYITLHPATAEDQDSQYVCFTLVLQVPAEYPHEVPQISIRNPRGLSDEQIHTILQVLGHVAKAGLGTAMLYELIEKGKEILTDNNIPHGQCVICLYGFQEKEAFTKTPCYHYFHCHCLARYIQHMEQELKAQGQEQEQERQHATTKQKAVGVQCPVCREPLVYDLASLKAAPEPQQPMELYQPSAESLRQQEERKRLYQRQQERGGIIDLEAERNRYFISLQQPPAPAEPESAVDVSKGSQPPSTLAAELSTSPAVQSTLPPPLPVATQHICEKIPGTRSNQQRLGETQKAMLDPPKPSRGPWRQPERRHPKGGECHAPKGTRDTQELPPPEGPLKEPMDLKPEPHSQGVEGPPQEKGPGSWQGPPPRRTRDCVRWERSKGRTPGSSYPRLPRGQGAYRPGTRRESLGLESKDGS

Chains of the proteins cited; added tags and fusions are not shown. Lines headed by an entry give the natural chain unless they say otherwise; changes in a name come on top.
UniProt Q9QZR0: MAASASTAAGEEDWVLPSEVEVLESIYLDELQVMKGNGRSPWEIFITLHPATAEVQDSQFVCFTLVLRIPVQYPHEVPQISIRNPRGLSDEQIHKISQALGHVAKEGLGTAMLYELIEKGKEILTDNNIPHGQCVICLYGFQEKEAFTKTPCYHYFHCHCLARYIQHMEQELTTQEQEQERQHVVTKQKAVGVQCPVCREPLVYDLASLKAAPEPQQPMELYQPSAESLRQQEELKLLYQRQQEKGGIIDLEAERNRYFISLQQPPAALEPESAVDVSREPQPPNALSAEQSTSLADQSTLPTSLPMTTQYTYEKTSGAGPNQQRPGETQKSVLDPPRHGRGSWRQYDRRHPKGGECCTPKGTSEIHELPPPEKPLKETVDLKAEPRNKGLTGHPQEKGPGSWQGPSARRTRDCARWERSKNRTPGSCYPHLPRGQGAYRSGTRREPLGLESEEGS
UniProt O35625: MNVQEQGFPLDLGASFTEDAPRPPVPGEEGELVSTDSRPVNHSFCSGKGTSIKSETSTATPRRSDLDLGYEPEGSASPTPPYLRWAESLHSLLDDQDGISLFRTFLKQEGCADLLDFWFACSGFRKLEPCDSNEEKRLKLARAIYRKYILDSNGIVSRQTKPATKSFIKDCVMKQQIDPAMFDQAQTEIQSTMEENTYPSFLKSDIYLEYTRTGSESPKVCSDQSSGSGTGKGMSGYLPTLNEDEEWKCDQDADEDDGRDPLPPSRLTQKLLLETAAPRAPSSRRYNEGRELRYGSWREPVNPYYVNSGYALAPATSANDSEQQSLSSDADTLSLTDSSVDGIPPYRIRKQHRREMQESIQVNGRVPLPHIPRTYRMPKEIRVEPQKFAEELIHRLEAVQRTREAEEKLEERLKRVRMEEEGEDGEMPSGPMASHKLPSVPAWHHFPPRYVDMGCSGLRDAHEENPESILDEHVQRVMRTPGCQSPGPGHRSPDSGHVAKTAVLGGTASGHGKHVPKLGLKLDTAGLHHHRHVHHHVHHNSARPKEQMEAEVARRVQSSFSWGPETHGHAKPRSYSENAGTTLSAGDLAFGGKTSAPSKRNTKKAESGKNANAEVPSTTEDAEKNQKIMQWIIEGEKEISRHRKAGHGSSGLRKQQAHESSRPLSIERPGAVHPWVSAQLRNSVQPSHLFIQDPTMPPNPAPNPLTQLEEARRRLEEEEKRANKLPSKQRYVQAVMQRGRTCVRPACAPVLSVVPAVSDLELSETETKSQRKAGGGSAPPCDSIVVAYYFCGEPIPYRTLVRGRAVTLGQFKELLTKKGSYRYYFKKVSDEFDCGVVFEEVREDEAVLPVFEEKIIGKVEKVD

[2] = target: HA-tagged Rnf25 N-terminal fragment (residues 1-112) (not stated (mouse Rnf25 from the screen; zebrafish rnf25 cDNA cloned; human C-terminal Rnf25 used as antigen)) (UniProt Q9QZR0); assay: co-IP; HEK293T co-transfected with two tagged proteins (HA, Myc); IP with anti-HA or anti-Myc and Protein A/G Plus-agarose, western blot; lysis buffer 20 mM Tris-HCl pH 7.4, 150 mM NaCl, 1% Triton
[3] = target: HA-tagged Rnf25 middle fragment (residues 113-291) containing the RING domain (not stated (mouse Rnf25 from the screen; zebrafish rnf25 cDNA cloned; human C-terminal Rnf25 used as antigen)) (UniProt Q9QZR0); assay: as above
[4] = target: HA-tagged full-length Rnf25 (not stated (mouse Rnf25 from the screen; zebrafish rnf25 cDNA cloned; human C-terminal Rnf25 used as antigen)) (UniProt Q9QZR0); assay: as above
HA-tagged Nkd1 = assay: co-IP; two-step co-IP from HEK293T transfected with HA-Nkd1: first IP with C2b (Axin) or control IgG, eluate precipitated again with anti-HA or control IgG; repeated under knock-down of Dvl2

- binding [1]: binds
Molecule: HA-tagged Nkd1

- binding [2]: no binding
- binding [3]: no binding
- binding [4]: binds
Molecule: Myc-tagged Axin (from UniProt O35625 1-863)

- binding (HA-tagged Nkd1): binds
B1: endogenous Rnf25 (protein, UniProt Q96BH1 1-459)
chain: MAASASAAAGEEDWVLPSEVEVLESIYLDELQVIKGNGRTSPWEIYITLHPATAEDQDSQYVCFTLVLQVPAEYPHEVPQISIRNPRGLSDEQIHTILQVLGHVAKAGLGTAMLYELIEKGKEILTDNNIPHGQCVICLYGFQEKEAFTKTPCYHYFHCHCLARYIQHMEQELKAQGQEQEQERQHATTKQKAVGVQCPVCREPLVYDLASLKAAPEPQQPMELYQPSAESLRQQEERKRLYQRQQERGGIIDLEAERNRYFISLQQPPAPAEPESAVDVSKGSQPPSTLAAELSTSPAVQSTLPPPLPVATQHICEKIPGTRSNQQRLGETQKAMLDPPKPSRGPWRQPERRHPKGGECHAPKGTRDTQELPPPEGPLKEPMDLKPEPHSQGVEGPPQEKGPGSWQGPPPRRTRDCVRWERSKGRTPGSSYPRLPRGQGAYRPGTRRESLGLESKDGS
